These are yes or no findings as the source states them, for the method shown. Binding seen in cells or lysates may run through a third protein. Some results given as binding are weak or reduced against the parent protein; the word gives no strength.
Target: GST-PCNA (proliferating cell nuclear antigen) (UniProt P12004)
Experiment: pull-down; GST-PCNA protein (5-10 ug) incubated with 1 mg of cell extract in modified RIPA buffer (PBS, 0.1% NP-40, 0.1% sodium deoxycholate, 50 mM NaCl, 1 mM EDTA, 1 mM DTT) at 4 C overnight; immunoblot with HA-tag or AR(441) antibody; cells without or with dihydrotestosterone (10^-8 M) overnight; 22Rv1 extracts also without or with 30 uM T2AA; only the target purified

By UniProt entry, the sequences of proteins in these tests, tags left out. Where a name states a change or a piece, a line headed by the entry shows the natural chain unless it says otherwise. Chains listed by the source or under a name are the forms on record and can include a tag or linker. Residues count along the entry.
UniProt P12004: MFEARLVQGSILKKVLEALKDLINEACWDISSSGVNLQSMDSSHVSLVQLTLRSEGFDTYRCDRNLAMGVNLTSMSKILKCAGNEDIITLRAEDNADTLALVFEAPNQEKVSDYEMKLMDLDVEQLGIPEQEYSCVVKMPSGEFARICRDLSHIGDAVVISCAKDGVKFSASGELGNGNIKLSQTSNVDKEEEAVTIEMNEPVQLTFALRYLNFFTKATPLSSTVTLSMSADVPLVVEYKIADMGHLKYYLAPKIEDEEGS
UniProt P10275: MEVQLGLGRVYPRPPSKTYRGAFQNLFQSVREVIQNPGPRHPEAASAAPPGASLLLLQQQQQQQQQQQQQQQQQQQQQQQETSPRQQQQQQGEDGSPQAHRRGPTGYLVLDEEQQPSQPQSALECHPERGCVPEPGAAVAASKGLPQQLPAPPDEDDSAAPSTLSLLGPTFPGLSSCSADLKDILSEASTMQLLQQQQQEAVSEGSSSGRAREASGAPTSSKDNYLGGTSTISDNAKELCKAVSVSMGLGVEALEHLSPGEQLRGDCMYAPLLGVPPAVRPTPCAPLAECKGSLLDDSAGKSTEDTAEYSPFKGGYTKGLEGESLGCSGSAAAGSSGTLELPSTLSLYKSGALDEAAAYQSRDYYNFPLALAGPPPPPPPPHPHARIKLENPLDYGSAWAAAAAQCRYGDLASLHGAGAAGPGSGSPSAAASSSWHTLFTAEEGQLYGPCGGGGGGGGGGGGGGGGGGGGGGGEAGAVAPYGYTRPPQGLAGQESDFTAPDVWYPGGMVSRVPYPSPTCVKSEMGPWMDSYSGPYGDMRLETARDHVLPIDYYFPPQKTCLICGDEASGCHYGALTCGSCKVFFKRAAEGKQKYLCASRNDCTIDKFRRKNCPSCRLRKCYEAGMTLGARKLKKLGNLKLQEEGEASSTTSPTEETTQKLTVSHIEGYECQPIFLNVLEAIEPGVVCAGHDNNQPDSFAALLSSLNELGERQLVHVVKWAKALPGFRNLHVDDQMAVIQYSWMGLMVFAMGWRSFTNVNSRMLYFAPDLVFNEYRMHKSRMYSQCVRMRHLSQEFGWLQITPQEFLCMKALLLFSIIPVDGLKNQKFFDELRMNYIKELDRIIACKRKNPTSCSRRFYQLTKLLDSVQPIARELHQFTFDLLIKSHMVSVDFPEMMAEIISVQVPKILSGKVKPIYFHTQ
HA-AR-V7 (containing both the NTD and DBD, AR1-628 aa): residues 1-628 of P10275
HA-AR-V7-PIP4m (HA-AR-V7 with deletion of PIP-box4) (P10275-1, form named): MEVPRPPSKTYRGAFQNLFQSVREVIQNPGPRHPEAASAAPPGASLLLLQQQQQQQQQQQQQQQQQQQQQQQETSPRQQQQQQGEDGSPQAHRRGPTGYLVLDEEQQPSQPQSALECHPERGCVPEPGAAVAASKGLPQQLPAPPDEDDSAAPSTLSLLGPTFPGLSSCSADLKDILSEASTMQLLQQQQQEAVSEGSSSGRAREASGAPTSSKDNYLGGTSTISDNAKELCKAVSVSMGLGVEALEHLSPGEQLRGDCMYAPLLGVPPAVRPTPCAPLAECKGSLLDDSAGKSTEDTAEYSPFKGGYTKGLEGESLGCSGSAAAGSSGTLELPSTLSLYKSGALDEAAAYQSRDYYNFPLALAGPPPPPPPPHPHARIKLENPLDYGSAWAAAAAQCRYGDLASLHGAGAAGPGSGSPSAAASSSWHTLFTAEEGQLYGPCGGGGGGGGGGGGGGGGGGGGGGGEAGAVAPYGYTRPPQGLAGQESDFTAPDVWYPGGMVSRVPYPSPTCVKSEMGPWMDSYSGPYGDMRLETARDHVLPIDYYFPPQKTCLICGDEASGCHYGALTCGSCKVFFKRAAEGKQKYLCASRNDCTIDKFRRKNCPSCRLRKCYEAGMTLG

binding | Substance
binds | AR-FL (full-length androgen receptor, expression vector without HA tag) (from UniProt P10275 1-920)
binds | HA-AR-NTD (AR N-terminal domain, AR1-539aa) (from UniProt P10275 1-539) (domain or fragment)
binds | HA-AR-V7 (containing both the NTD and DBD, AR1-628 aa) (from UniProt P10275-1 1-628) (domain or fragment)
binds | HA-AR-V7-PIP4m (HA-AR-V7 with deletion of PIP-box4) (from UniProt P10275-1 1-628) (domain or fragment)

Source: publication PMC12219270
